In paper PMC3069076 one finds binding data, which are given here for four substances.

Amino acid sequences for entries named in this document (tags omitted). A change or cut given only in a name is not applied to a line headed by its entry. Chains listed by the source or under a name are the forms on record and can include a tag or linker. Residues count along the entry.
UniProt Q8N668: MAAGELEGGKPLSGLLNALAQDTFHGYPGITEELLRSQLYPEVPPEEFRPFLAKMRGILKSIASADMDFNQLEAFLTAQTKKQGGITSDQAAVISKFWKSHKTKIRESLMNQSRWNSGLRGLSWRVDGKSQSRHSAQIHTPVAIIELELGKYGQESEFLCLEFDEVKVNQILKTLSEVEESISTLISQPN
UniProt P13569: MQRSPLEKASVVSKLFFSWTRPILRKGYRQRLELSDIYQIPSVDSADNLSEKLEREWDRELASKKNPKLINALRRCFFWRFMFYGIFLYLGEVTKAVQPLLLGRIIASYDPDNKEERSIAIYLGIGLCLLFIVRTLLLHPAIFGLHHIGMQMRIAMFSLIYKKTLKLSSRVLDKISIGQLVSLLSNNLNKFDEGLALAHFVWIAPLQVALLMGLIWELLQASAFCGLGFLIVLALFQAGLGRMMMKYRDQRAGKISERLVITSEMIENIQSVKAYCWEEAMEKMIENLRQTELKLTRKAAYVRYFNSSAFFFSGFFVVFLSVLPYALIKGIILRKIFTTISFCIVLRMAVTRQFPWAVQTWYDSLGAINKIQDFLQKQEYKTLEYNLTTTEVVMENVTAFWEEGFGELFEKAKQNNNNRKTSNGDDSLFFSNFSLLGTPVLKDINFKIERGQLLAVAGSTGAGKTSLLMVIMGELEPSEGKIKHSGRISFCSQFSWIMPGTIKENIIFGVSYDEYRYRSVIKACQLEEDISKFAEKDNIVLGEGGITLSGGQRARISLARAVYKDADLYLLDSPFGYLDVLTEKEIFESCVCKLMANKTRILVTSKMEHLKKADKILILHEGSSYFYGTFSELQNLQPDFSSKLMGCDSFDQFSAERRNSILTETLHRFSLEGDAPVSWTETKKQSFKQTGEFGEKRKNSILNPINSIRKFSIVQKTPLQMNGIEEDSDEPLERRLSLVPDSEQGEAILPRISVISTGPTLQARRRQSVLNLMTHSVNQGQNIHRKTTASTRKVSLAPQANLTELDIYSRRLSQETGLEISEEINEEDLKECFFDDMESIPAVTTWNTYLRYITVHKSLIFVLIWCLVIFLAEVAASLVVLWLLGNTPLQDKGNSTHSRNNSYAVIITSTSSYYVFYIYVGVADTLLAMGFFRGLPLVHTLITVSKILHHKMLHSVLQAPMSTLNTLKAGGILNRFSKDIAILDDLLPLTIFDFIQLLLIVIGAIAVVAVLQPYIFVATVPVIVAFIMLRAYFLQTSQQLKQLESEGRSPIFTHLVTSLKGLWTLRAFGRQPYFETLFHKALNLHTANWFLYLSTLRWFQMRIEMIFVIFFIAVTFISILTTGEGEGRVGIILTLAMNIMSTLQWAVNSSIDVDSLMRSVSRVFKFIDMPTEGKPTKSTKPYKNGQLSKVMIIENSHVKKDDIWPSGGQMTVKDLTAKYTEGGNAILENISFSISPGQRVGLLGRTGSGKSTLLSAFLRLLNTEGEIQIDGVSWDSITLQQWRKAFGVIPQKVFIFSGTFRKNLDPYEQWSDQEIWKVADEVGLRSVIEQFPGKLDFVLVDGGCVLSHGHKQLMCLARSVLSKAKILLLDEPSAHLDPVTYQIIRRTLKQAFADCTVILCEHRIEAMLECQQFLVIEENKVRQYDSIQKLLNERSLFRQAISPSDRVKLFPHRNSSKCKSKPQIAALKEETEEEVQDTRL
third intracytoplasmic loop (ICL3) of CFTR, amino acids Leu937 to Pro988: residues 937-988 of P13569
CFTR ICL3 mutant D979A (P13569, form named): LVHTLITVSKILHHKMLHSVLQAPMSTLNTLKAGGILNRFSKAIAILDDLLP

Assay [1] deals with COMMD1, endogenous in HT-29 cells (human (endogenous in HT-29)) (UniProt Q8N668). In words: co-IP; HT-29 lysates, endogenous proteins; IP with 0.8 µg anti-CFTR mAb (MAB25031) or 0.8 µg anti-COMMD1 mAb (Abnova), anti-mouse IgG as control; immunoblot for CFTR (MM13-4) and COMMD1 (rabbit pAb). In general terms: A western blot detects proteins with antibodies after separation by electrophoresis.

Assay [2] addresses CFTR (cystic fibrosis transmembrane conductance regulator), endogenous in HT-29 cells (human (endogenous in HT-29)) (UniProt P13569). The description is as above.
Assay [3] addresses wt-CFTR expressed in HeLa cells (pTracer-CMV construct) (UniProt P13569). In words: co-IP; HeLa cells stably expressing wt-CFTR (spTCF-wt) transfected with Myc-COMMD1 or Myc-COMMD1ΔCOMM; CFTR IP, immunoblot with anti-c-Myc mAb; spTracer cells as control.
The next assay addresses K951R-CFTR (UniProt P13569). In words: co-IP; HeLa cells co-transfected with Myc-COMMD1 or empty vector and wt, K946R, K951R or K978R-CFTR; CFTR IP, immunoblot with anti-c-Myc mAb.
For the next assay, the target named is K978R-CFTR (UniProt P13569). Described as above.
In assay [4] the target is wt-CFTR expressed in HeLa cells (pTracer-CMV construct) (UniProt P13569). Described as above.
The target of a further assay is K946R-CFTR (UniProt P13569). Described as above.
A further assay has as its target CFTR ICL3 mutant D979A (UniProt P13569). In words: two-hybrid; targeted yeast two-hybrid tests between COMMD1 and ICL3 mutants; data not shown.
In assay [5] the target is third intracytoplasmic loop (ICL3) of CFTR, amino acids Leu937 to Pro988 (UniProt P13569). Briefly: two-hybrid; yeast two-hybrid screen with CFTR ICL3 (Leu937 to Pro988) as bait.

These are yes or no findings as the source states them, for the method shown. For part of these data: Binding seen in cells or lysates may run through a third protein. Some binding calls cover weakened binding; strength is not graded here.

With “CFTR (cystic fibrosis transmembrane conductance regulator), endogenous in HT-29 cells (from UniProt P13569 1-1480)”, the binding result in assay [1] is “binds”.

Regarding “COMMD1, endogenous in HT-29 cells (from UniProt Q8N668 1-190)”, the binding result in assay [2] is listed as “binds”.

Myc-COMMD1 (from UniProt Q8N668 1-190): the binding entry (in assay [3]; with K951R-CFTR; with K978R-CFTR; in assay [4]; with K946R-CFTR) was “binds” throughout.

As to “human COMMD1 (amino acids 5-190), two-hybrid clone (from UniProt Q8N668 5-190) (domain or fragment)”, the binding result (with CFTR ICL3 mutant D979A; in assay [5]) was “binds” throughout.
